Measurements from patent publication US11827580B2, “Aminotetraline activators of serotonin receptors” (ATAI Life Sciences AG, priority 2021, dated 2023).
pEC50: −log10 of the molar value. The structures given here were assigned with low confidence; some may be wrong.

Sequences of proteins named here, by UniProt entry; tags and fusion partners are left off. Residues count along the entry.
UniProt P28223, whole entry: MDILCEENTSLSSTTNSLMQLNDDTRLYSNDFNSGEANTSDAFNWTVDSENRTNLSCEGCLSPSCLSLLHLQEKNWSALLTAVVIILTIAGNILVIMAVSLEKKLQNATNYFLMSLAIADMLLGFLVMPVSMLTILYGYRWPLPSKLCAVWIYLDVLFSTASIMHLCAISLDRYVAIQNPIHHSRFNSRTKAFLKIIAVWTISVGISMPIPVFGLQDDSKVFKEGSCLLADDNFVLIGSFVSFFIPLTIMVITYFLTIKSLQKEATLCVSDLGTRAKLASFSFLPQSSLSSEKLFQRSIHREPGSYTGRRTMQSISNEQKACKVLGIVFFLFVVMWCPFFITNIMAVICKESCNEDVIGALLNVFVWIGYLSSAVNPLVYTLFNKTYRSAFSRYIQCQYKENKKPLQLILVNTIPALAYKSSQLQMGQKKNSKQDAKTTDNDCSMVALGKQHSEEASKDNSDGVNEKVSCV
UniProt P08908, whole entry: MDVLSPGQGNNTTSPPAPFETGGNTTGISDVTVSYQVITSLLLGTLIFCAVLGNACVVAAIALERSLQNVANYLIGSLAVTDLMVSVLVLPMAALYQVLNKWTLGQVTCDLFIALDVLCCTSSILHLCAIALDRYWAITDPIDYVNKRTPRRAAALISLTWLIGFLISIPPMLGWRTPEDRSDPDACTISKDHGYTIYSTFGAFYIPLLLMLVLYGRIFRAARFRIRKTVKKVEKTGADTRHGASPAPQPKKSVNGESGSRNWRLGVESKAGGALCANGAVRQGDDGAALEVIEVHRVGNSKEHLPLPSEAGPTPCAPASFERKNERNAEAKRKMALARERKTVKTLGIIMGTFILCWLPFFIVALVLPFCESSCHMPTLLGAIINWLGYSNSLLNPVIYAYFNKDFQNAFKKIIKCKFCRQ
UniProt P28335, 33-458 limits assumed: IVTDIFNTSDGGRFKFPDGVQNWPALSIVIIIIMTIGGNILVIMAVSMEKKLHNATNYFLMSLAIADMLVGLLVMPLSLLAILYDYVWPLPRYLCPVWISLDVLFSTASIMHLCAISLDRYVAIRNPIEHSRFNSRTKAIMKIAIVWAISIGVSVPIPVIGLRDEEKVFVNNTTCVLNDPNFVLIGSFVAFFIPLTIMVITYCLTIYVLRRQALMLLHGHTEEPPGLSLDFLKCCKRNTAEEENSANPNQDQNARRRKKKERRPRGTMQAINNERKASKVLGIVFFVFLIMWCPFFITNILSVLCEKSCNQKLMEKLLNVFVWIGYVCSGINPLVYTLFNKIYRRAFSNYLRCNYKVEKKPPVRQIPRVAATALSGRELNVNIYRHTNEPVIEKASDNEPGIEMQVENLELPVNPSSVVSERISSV
UniProt P41595, whole entry: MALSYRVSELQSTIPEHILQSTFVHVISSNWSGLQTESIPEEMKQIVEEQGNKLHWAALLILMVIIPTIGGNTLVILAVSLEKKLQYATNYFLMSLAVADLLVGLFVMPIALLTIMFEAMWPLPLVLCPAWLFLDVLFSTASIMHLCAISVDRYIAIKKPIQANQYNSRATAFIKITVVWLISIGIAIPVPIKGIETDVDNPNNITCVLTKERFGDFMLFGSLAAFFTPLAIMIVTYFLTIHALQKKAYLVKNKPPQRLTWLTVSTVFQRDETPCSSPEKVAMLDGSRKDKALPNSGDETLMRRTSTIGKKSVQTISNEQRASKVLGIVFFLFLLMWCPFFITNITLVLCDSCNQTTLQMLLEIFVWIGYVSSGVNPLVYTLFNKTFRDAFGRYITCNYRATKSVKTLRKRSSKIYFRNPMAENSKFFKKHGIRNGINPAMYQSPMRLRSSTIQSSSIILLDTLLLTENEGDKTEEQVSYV

Tests used:
5HT2A [1] = biological target: T1, 5HT2A (Homo sapiens, UniProt P28223); test: 5HT2A activation (%) max at two concentrations (Table 1); type: cell-based; settings: tested form: TFA
5-HT1A [2] = biological target: T2, 5-HT1A (Homo sapiens, UniProt P08908); test: cAMP secondary messenger pathway assay (HitHunter cAMP, Gi agonist mode); settings: read-out: EC50 5-HT1A (Gi signaling), CHO cells, forskolin present, tested form: TFA
Source text: cAMP Secondary Messenger Pathway Assay Method (Performed by DiscoveRx Eurofins)
DiscoverX has developed a panel of cell lines stably expressing non-tagged GPCRs that signal through cAMP. Hit Hunter® cAMP assays monitor the activation of a GPCR via Gi and Gs secondary messenger signaling in a homogenous, non-imaging assay format using a technology developed by DiscoverX called Enzyme Fragment Complementation (EFC) with β-galactosidase (β-Gal) as the functional reporter. The enzyme is split into two complementary portions: EA for Enzyme Acceptor and ED for Enzyme Donor. ED is fused to cAMP and in the assay competes with cAMP generated by cells for binding to a cAMP-specific antibody. Active β-Gal is formed by complementation of exogenous EA to any unbound ED-cAMP. Active enzyme can then convert a chemiluminescent substrate, generating an output signal detectable on a standard microplate reader.
cAMP Hunter cell lines were expanded from freezer stocks according to standard procedures. Human 5-HT1A receptor-mediated cAMP signaling was evaluated in stably transfected hamster-derived CHO cells. Cells were seeded in a total volume of 20 μL into white walled, 384-well microplates and incubated at 37° C. overnight. cAMP modulation was determined using the DiscoverX HitHunter cAMP XS+ assay. […]
Compound activity was analyzed using CBIS data analysis suite (ChemInnovation, CA). […]

5HT2A [3] = biological target: T1, 5HT2A; test: Calcium mobilization assay (Gq signaling); settings: tested form: TFA
Source text: (§1) Calcium Mobilization Assay Method (Performed by DiscoveRx Eurofins)
(§2) The Calcium No-Wash^PLUS assay monitors the activation of a GPCR via Gq secondary messenger signaling in a live cell, non-imaging assay format. Calcium mobilization in PathHunter® cell lines or other cell lines stably expressing Gq-coupled GPCRs is monitored using a calcium-sensitive dye that is loaded into cells. GPCR activation by a compound results in the release of calcium from intracellular stores and an increase in dye fluorescence that is measured in real-time.
(§3) Cell lines expressing the GPCR of interest were expanded from freezer stocks according to standard procedures. Human 5-HT2A, 5-HT2B or 5-HT2C receptor-mediated calcium mobilization was evaluated in stably transfected human-derived U2OS (5-HT2A or 5-HT2B) or HEK (5-HT2B) cells. Cells were seeded in a total volume of 20 μL into black-walled, clear-bottom, Poly-D-lysine coated 384-well microplates and incubated at 37° C. overnight prior to testing.
(§4) Assays were performed in 1× Dye Loading Buffer consisting of 1× Dye, 1× Additive A and 2.5 mM Probenecid in HBSS/20 mM Hepes. Probenicid was prepared fresh. Cells were loaded with dye prior to testing. Media was aspirated from cells and replaced with 20 μL Dye Loading Buffer. Cells were incubated for 45 minutes at room temperature.
(§5) For agonist determination, cells were incubated with sample to induce response. After dye loading, cells were removed from the incubator and 10 μL HBSS/20 mM Hepes was added. 3× vehicle was included in the buffer when performing agonist dose curves to define the EC80 for subsequent antagonist assays. Cells were incubated for 30 minutes at room temperature in the dark to equilibrate plate temperature.
(§6) Intermediate dilution of sample stocks was performed to generate 4× sample in assay buffer. Compound agonist activity was measured on a FLIPR Tetra (MDS). Calcium mobilization was monitored for 2 minutes and 10 μL 4× sample in HBSS/20 mM Hepes was added to the cells seconds into the assay.
(§7) Compound activity data was analyzed using CBIS data analysis suite (ChemInnovation, CA). For agonist mode assays, percentage activity is calculated using the following formula: % Activity=100%×(mean RFU of test sample−mean RFU of vehicle control)/(mean MAX RFU control ligand−mean RFU of vehicle control).
(§8) In these studies, the MAX RFU was generated by using 0.1 μM serotonin for the calcium mobilization assay.

Human 5-HT2C receptor = Human 5-HT2C receptor (Homo sapiens, UniProt P28335); test: Calcium mobilization assay (Gq signaling); settings: read-out: EC50 5-HT2C (Gq signaling), tested form: TFA
Source text: as §1, §2, §3, §4, §5, §6, §7, §8

Human 5-HT2B receptor = Human 5-HT2B receptor (Homo sapiens, UniProt P41595); test: Calcium mobilization assay (Gq signaling); settings: read-out: EC50 5-HT2B (Gq signaling), tested form: TFA
Source text: as §1, §2, §3, §4, §5, §6, §7, §8

5HT2A [4] = biological target: T1, 5HT2A; test: PathHunter β-Arrestin assay; settings: tested form: TFA
Source text: (§9) Arrestin Pathway (Performed by DiscoverX Eurofins)
(§10) The PathHunter® β-Arrestin assay monitors the activation of a GPCR in a homogenous, non-imaging assay format using a technology developed by DiscoverX called Enzyme Fragment Complementation (EFC) with β-galactosidase (β-Gal) as the functional reporter. […] EA is fused to β-Arrestin and PK is fused to the GPCR of interest. When the GPCR is activated and β-Arrestin is recruited to the receptor, ED and EA complementation occurs, restoring β-Gal activity which is measured using chemiluminescent PathHunter® Detection Reagents.
PathHunter cell lines (DiscoveRx Eurofins) were expanded from freezer stocks according to standard procedures. Human 5-HT2A receptor-mediated GPCR β-arrestin activity was evaluated in stably transfected human-derived U2OS cells. Cells were seeded in a total […] into white walled, 384-well microplates and incubated at 37° C. overnight prior to testing.
For agonist determination, cells were incubated with sample to induce response. Intermediate dilution of sample stocks was performed to generate 5× sample in assay buffer. 5 μL of 5× sample was added to cells and incubated at 37° C. or room temperature for 120 minutes. Vehicle concentration was 1%.
(§11) β-Arrestin assay signal was generated through a single addition of 12.5 or 15 μL (50% v/v) of PathHunter Detection reagent cocktail, followed by a one hour incubation at room temperature. Microplates were read following signal generation with a PerkinElmer Envision™ instrument for chemiluminescent signal detection.
(§12) Compound activity was analyzed using CBIS data analysis suite (ChemInnovation, CA). For agonist mode assays, percentage activity was calculated using the following formula: % Activity=100%×(mean RLU of test sample−mean RLU of vehicle control)/(mean MAX control ligand−mean RLU of vehicle control).
In these studies, the MAX control ligand response was generated using 1 μM serotonin.

5-HT1A [5] = biological target: T2, 5-HT1A; test: β-arrestin signaling assay; settings: read-out: EC50 5-HT1A (β-arrestin signaling); tested form: TFA
Source text: as §9, §10
For agonist determination, cells were incubated with sample to induce response. Intermediate dilution of sample stocks was performed to generate 5× sample in assay buffer. […]
as §11
as §12, with “control). […]” for “control).”

## COc1cc(I)c(OC)c2c1CC(N)CC2 (centres unmarked)
5HT2A [1]; 03 μM [sic]
  5HT2A activation (%) max @ 03 μM: 55.4%
5HT2A [1]; 30 μM (first value of the cell)
  5HT2A activation (%) max @ 30 μM: 72.2%
5-HT1A [2]
  pEC50: 6.43
5HT2A [3]; FIG. 1B
  potency bias, 5-HT2A Gq-mediated signaling versus β-arrestin recruitment: 14 fold
5HT2A [3]; Gq signaling, FIG. 1A
  increase in potency at 5-HT2A compared to 5-HT2B: > 1136 fold
5HT2A [3]; Gq signaling
  potency across 5-HT2A and 5-HT2C: near equipotency
5HT2A [3]; compared to the maximum serotonin response
  max activation of 5-HT2A Gq-mediated signaling: 82%
5HT2A [3]; read-out: EC50 5-HT2A (Gq signaling), calcium mobilization
  pEC50: 8.06
Human 5-HT2C receptor
  pEC50: 8.25
Human 5-HT2B receptor
  pEC50: < 5.00
5HT2A [4]; pathway not given, β-arrestin by context
  maximum efficacy levels (partial agonism): 35%
5HT2A [4]; read-out: EC50 5-HT2A (β-arrestin signaling), U2OS cells
  pEC50: 6.92
5HT2A [4]
  agonism / potency for β-arrestin recruitment at 5-HT2A: partial agonism
5-HT1A [5]
  pEC50: < 5.00
